Data source: PubChem BioAssay AID1224830 (NIAID, 2016)
The deposit covers about 18,000 reagents; below is a part drawn at random. About 2,900 of them (16%) count as active. 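Calls are made per well; low scores hint the gene aids the LPS response, high scores that it dampens it.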 Repeated entries: four replicate wells of each siRNA pool. No sequences are given here.

Screen: 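Host factors that control LPS-induced TNF expression in human macrophages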 (primary screen)
Cells: human THP-1 monocytic leukaemia cells, TNF dual-luciferase reporter clone, PMA-differentiated to macrophage-like cells
Reagents: siRNA pool against human genes, 50 nM
Timing: LPS for 4 h, given about 3 days after siRNA transfection
Treatment: bacterial LPS (TLR4 ligand), 10 ng/ml
Detection: 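TNF firefly reporter luminescence divided by renilla, normalised to the plate median, then turned into a robust z-score for each replicate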
Scale: TNF reporter robust z-score: higher = stronger TNF reporter response to LPS
Active means: 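Each well counts as active if its z-score is over 2.8 or under -1.5; controls are left without a call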

The opening 9 records, ahead of the listing:
| Gene | TNF reporter robust z-score | outcome |
| --- | --- | --- |
| ATP6V0D1 | 0.55 | inactive |
| ATP6V0D1 | 0.34 | inactive |
| ATP6V0D1 | -0.05 | inactive |
| ATP6V0D1 | 0.72 | inactive |
| ZNF816 | 2.56 | inactive |
| ZNF816 | 1.39 | inactive |
| ZNF816 | 1.07 | inactive |
| ZNF816 | 1.09 | inactive |
| HPGD | -0.05 | inactive |

The listing, from the start:
| Gene | TNF reporter robust z-score | outcome |
| --- | --- | --- |
| ATP6V0D1 | 0.55 | inactive |
| ATP6V0D1 | 0.34 | inactive |
| ATP6V0D1 | -0.05 | inactive |
| ATP6V0D1 | 0.72 | inactive |
| ZNF816 | 2.56 | inactive |
| ZNF816 | 1.39 | inactive |
| ZNF816 | 1.07 | inactive |
| ZNF816 | 1.09 | inactive |
| HPGD | -0.05 | inactive |
| HPGD | 1.66 | inactive |
| HPGD | 1.1 | inactive |
| HPGD | 0.1 | inactive |
| MYO7B | -0.88 | inactive |
| MYO7B | 0.45 | inactive |
| MYO7B | 2.14 | inactive |
| MYO7B | 0.69 | inactive |
| CDK19 | -1.08 | inactive |
| CDK19 | -0.15 | inactive |
| CDK19 | -0.25 | inactive |
| CDK19 | 0.35 | inactive |
| TGIF2 | 0.17 | inactive |
| TGIF2 | -0.34 | inactive |
| TGIF2 | -0.85 | inactive |
| TGIF2 | -1.02 | inactive |
| SMIM21 | 1.34 | inactive |
| SMIM21 | 0.82 | inactive |
| SMIM21 | -0.16 | inactive |
| OAZ2 | -0.61 | inactive |
| OAZ2 | -1.18 | inactive |
| OAZ2 | 0.39 | inactive |
| OAZ2 | 0.64 | inactive |
| EEF1E1 | -1.32 | inactive |
| EEF1E1 | -0.84 | inactive |
| EEF1E1 | -0.98 | inactive |
| EEF1E1 | -0.69 | inactive |
| RFTN2 | 1.19 | inactive |
| RFTN2 | 1.25 | inactive |
| RFTN2 | -0.75 | inactive |
| RFTN2 | 0.53 | inactive |
| ZNF71 | -1.11 | inactive |
| ZNF71 | -1.06 | inactive |
| ZNF71 | -1.26 | inactive |
| ZNF71 | -0.58 | inactive |
| TRIM25 | -1.66 | active |
| TRIM25 | -0.48 | inactive |
| TRIM25 | -0.45 | inactive |
| TRIM25 | 1.45 | inactive |
| ZNRF2 | 1.09 | inactive |
| ZNRF2 | 0.28 | inactive |
| ZNRF2 | 49.6 | active |
| ZNRF2 | 1.05 | inactive |
| RAB1A | 0.48 | inactive |
| RAB1A | 2.01 | inactive |
| RAB1A | 1.27 | inactive |
| RAB1A | 1.51 | inactive |
| NMB | 0.29 | inactive |
| NMB | -0.46 | inactive |
| NMB | -0.52 | inactive |
| NMB | 0.83 | inactive |
| COL10A1 | -0.55 | inactive |
| COL10A1 | -1.25 | inactive |
| COL10A1 | -0.69 | inactive |
| COL10A1 | 0.48 | inactive |
| KRTAP6-3 | -0.71 | inactive |
| KRTAP6-3 | -0.46 | inactive |
| KRTAP6-3 | -1.04 | inactive |
| KRTAP6-3 | -0.08 | inactive |
| MRPL52 | 1.25 | inactive |
| MRPL52 | 1.33 | inactive |
| MRPL52 | 0.67 | inactive |
| MRPL52 | 1.42 | inactive |
| PIK3C2G | -1.61 | active |
| PIK3C2G | -0.2 | inactive |
| PIK3C2G | -0.66 | inactive |
| PIK3C2G | 0.3 | inactive |
| FFAR1 | 2.44 | inactive |
| FFAR1 | -0.52 | inactive |
| FFAR1 | -1.21 | inactive |
| FFAR1 | -0.53 | inactive |
| RNF180 | 0.16 | inactive |
| RNF180 | 0.26 | inactive |
| RNF180 | -1.36 | inactive |
| RNF180 | -0.23 | inactive |
| HIC2 | -0.23 | inactive |
| HIC2 | 0.03 | inactive |
| HIC2 | 0.1 | inactive |
| HIC2 | 0.95 | inactive |
| TRARG1 | 0.33 | inactive |
| TRARG1 | 1.05 | inactive |
| TRARG1 | -0.03 | inactive |
| TRARG1 | 1.97 | inactive |
| FBXL19 | 2.51 | inactive |
| FBXL19 | -0.37 | inactive |
| FBXL19 | 0 | inactive |
| FBXL19 | 0.25 | inactive |
| SPMIP2 | -0.9 | inactive |
| SPMIP2 | -0.5 | inactive |
| SPMIP2 | -0.35 | inactive |
| SPMIP2 | 0.24 | inactive |
| NSMCE2 | 0.98 | inactive |
| NSMCE2 | -1.07 | inactive |
| NSMCE2 | 0.2 | inactive |
| NSMCE2 | -0.26 | inactive |
| AGFG2 | 0.76 | inactive |
| AGFG2 | 0.9 | inactive |
| AGFG2 | 1.86 | inactive |
| AGFG2 | 2.13 | inactive |
| HNRNPM | -1.52 | active |
| HNRNPM | -0.8 | inactive |
| HNRNPM | -1.25 | inactive |
| HNRNPM | -1.81 | active |
